Results as given in patent publication US20200223921A1.
These are yes or no findings as the source states them, for the method shown. Binding seen in cells or lysates may run through a third protein. Some entries that bind do so weakly or less than the wild type.

Chains of the proteins cited; added tags and fusions are not shown. Lines headed by an entry give the natural chain unless they say otherwise; changes in a name come on top. A line that says so, or that is headed by a name, gives the form on record, which may keep a tag or linker. Residues count along the entry.
UniProt P17931: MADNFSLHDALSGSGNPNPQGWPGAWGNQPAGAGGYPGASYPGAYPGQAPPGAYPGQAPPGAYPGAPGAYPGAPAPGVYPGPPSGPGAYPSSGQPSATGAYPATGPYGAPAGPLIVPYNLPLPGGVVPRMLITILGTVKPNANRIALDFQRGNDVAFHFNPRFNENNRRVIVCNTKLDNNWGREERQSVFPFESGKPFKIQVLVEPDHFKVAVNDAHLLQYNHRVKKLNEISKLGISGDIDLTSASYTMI
UniProt Q8TDQ0: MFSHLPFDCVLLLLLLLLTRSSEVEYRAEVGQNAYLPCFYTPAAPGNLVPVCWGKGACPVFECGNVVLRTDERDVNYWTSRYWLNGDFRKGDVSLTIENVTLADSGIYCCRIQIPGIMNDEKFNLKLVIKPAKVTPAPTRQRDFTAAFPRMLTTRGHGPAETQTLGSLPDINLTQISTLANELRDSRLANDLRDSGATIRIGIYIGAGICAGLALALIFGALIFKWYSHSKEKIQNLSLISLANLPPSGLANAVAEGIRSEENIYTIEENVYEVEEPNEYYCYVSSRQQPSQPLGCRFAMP
HA-tagged human TIM-3 (expressed in 293T cells): residues 22-301 of Q8TDQ0

Columns and labels:
[1] = target: Flag-tagged human Gal3 (over-expressed in 293T cells) (human) (UniProt P17931); experiment: pull-down with Fc fusion protein, anti-Flag blot (FIG. 2)
[2] = target: Flag-tagged human Gal3 (over-expressed in 293T cells) (human) (UniProt P17931); experiment: pull-down: 293T cells expressing Flag-hGal3 on plates coated with hTIM-3 Fc, Protein G beads, anti-Flag blot
[3] = target: HA-tagged human TIM-3 (expressed in 293T cells) (human) (UniProt Q8TDQ0); experiment: co-immunoprecipitation, anti-HA blot (FIG. 1C)
[4] = target: HA-tagged human TIM-3 (expressed in 293T cells) (human) (UniProt Q8TDQ0); experiment: co-immunoprecipitation with anti-Flag agarose beads from co-transfected 293T cells, anti-HA blot

Row | Substance | binding [1] | binding [2] | binding [3] | binding [4]
1 | hTIM-3 Fc (hTIM-3 extracellular domain fused with the Fc portion of hIgG) (from UniProt Q8TDQ0 22-202) (Fc fusion) | binds | binds | – | –
2 | Flag-tagged human Gal3 (over-expressed in 293T cells) (from UniProt P17931 1-250) (ligand) | – | – | binds | binds
